The target of the assay is T1, recombinant mouse IL-6 receptor subunit alpha protein with the Fc region of mouse IgG2a (mouse) (UniProt P22272).
T1 sequence: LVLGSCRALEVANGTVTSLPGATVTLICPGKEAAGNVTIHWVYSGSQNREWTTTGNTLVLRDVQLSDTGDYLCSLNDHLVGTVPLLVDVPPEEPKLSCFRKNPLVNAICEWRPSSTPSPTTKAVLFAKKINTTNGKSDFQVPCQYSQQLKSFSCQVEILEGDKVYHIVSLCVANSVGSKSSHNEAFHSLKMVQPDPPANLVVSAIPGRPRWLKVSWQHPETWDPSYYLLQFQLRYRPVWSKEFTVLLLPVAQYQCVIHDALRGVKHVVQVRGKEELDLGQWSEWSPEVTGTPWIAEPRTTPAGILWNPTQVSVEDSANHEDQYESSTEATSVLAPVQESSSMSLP
As to the kind of experiment: condition: 5 µg peptide with 0.5 µg receptor in 1 mL; pull-down; Fc-receptor (0.5 µg) with peptide (5 µg) in 1 mL 20 mM Tris-HCl pH 7.6, 200 mM NaCl, 1 mM EDTA, 4 °C, 2 h; captured on Protein A agarose; eluate read by mass spectrometry (LTQ-Orbitrap Velos, Q-Exactive); both purified.

No constants are given. Whether binding was seen depends on the method and setting. Where a sequence is shown, tags or fusion partners need not be part of it.

As to CCVFVSNPCDDTITAFWGTGRK [negative control peptide A], the binding result is “no binding”.
For SCCTFLFQWSNMRCEHSITQIVGGG [negative control peptide B], the binding result is on record as “no binding”.

Source of the values: article PMC9596850, “Tonsillar Microbiome‐Derived Lantibiotics Induce Structural Changes of IL‐6 and IL‐21 Receptors and Modulate Host Immunity” (Advanced Science, 2022).
